Values quoted from earlier work in US20100144675A1, “Regulation of sGC Function by Corrin Derivatives” (priority 2007, published 2010).
For at least one compound, name, drawing or mass did not settle the structure.

System: sGC
Settings: cited from earlier work

C=CC1=C(C)c2cc3[nH]c(cc4nc(cc5[nH]c(cc1n2)c(C)c5CCC(=O)O)C(CCC(=O)O)=C4C)c(C)c3C=C [PPIX, protoporphyrin IX, reference compound]
sGC activation reported by Ignarro and co-workers: activated efficiently
